In patent publication US20210214454A1:

Target: cynomolgus CD40 extracellular domain (ECD) (cynomolgus)
Assay: SPR (IBIS MX96)

binding | Binder
binds | antibody 15833 (antibody, human IgG1, kappa, L234A L235A, V domains shown) VH: QVQLVESGGGVVQPGRSLRLSCAASGFTFSNYAMHWVRQAPGKGLEWVALISFDGSYKYYADSVKGRFTISRDNSKNTLYLQMNSLRAEDTAVYYCVKDAGYSSSWFFDYWGQGTLVTVSS VL: DIQMTQSPSSVSASVGDRVTITCRASQDISSWLAWYQQKPGKAPKLLIYAASSLQSGVPSRFSGSGSGTDFTLTISSLQPEDFGNYYCQQANSFPWTFGQGTKVEIKR
binds | antibody 16154 (antibody, human IgG1, kappa, L234A L235A, V domains shown) VH: EVQLVESGGGLVQPGGSLRLSCAASGFTFTSYWMSWVRQAPGKGLEWVANIKQDGSEKYYVDSVKGRFTISRDNAKNSLYLQMNSLRAEDTAVYYCARGPVAGPYWYFDLWGRGTLVTVSS VL: AIQMTQSPSSLSASVGDRVTITCRASQGIRNDLGWYQQKPGKAPKLLIYAASSLQSGVPSRFSGSGSGTDFTLTISSLQPEDFATYYCLQDYHYPLTFGGGTKVEIKR

These are yes or no findings as the source states them, for the method shown. Binding calls can cover weak binding; strength is not graded here.
